Test results: US5783558A (Boehringer Mannheim GmbH, priority 1992, dated 1998)

Legend:
[1] = general procedure: Fmoc solid-phase peptide synthesis; Fmoc-Val-NovaSyn-PA 500 (0.37 mMol/g) for hPTH(1-35); Fmoc-Ala-NovaSyn-PA 500 (0.35 mMol/g) for hPTH(1-36); cellulose fi; Pentafluorophenyl esters with HOBt; HOBt/DICD in filter method; conditions: whole synthesis, area percent, scale of the general procedure 10 μMol (filter method)
[2] = Fmoc solid-phase peptide synthesis; Fmoc-Val-NovaSyn-PA 500 (0.37 mMol/g) for hPTH(1-35); Fmoc-Ala-NovaSyn-PA 500 (0.35 mMol/g) for hPTH(1-36); cellulose fi; Pentafluorophenyl esters with HOBt; HOBt/DICD in filter method; conditions: whole synthesis, scale of the general procedure 10 μMol (filter method)
[3] = Fmoc solid-phase peptide synthesis; cellulose filter paper; Pentafluorophenyl esters with HOBt; HOBt/DICD in filter method; conditions: whole synthesis, scale 10 μMol

Row | Substance | crude HPLC purity [1] [%] | crude yield [2] [%] | crude mass [3] [mg]
1 | Ser-Val-Ser-Glu-Ile-Gln-Leu-Met-His-Asn-Leu-Gly-Lys-His-Leu-Asn-Ser-Met-Glu-Arg-Val-Glu-Trp-Leu-Arg-Lys-Lys-Leu-Gln-Asp-Val-His-Asn-Phe-Val (SVSEIQLMHNLGKHLNSMERVEWLRKKLQDVHNFV) | 35 | 71 | 43
2 | Ser-Val-Ser-Glu-Ile-Gln-Leu-Met-His-Asn-Leu-Gly-Lys-His-Leu-Asn-Ser-Met-Glu-Arg-Val-Glu-Trp-Leu-Arg-Lys-Lys-Leu-Gln-Asp-Val-His-Asn-Phe-Val-Ala (SVSEIQLMHNLGKHLNSMERVEWLRKKLQDVHNFVA) |  | 67 | 34
